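Luminescence from an EWS-FLI1 target-promoter (NR0B1) reporter, set against a CMV-promoter reporter, two days after silencing single genes in TC32 Ewing sarcoma cells. Each siRNA was applied at 20 nM. A z-score of the log NR0B1-over-CMV signal, less the median of siRNAs with the same seed; more negative means a stronger specific loss of the NR0B1 reporter.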

The strongest results of the screen are mostly left out here. Sequences are the guide (antisense) strand, without overhang.

{"sequence": "UUCAUUAAUAAGACUGUCA", "gene": "C8orf37", "seed-corrected z-score": "0.07709"}
{"sequence": "UCCAUAAGUAUUUAAGUUG", "gene": "DPY19L4", "seed-corrected z-score": "0.405"}
{"sequence": "UACAGGUUCUCGGUGGUGU", "gene": "WASH6P", "seed-corrected z-score": "-0.2774"}
{"sequence": "AUAUCCACCAUUCCCAUGG", "gene": "SERPINB3", "seed-corrected z-score": "0.3531"}
{"sequence": "AAAGCGAAACAGGAUGUUC", "gene": "GAL3ST3", "seed-corrected z-score": "0.08649"}
{"sequence": "UUUCUUUAUGGUUGUUUUC", "gene": "SYT6", "seed-corrected z-score": "-0.4641"}
{"sequence": "UAGGAAUUCGCUUUCACCG", "gene": "CD40", "seed-corrected z-score": "-0.3527"}
{"sequence": "UAUGAUAUCACAUCACCUG", "gene": "VGLL2", "seed-corrected z-score": "1.191"}
{"sequence": "AUAGGUGAGUAGUAAUUCC", "gene": "TRHR", "seed-corrected z-score": "0.1054"}
{"sequence": "AUCCUUGUAGUAGUAGAGC", "gene": "ARHGAP25", "seed-corrected z-score": "-0.6354"}
{"sequence": "UCUCAUAUCAACUAUCAUG", "gene": "SHISA5", "seed-corrected z-score": "-0.5934"}
{"sequence": "UAGCCGUUAGCAUCAGUGC", "gene": "LOXHD1", "seed-corrected z-score": "-0.1809"}
{"sequence": "UUCCCAAUCUUGUUGAUUC", "gene": "CBS", "seed-corrected z-score": "-0.4685"}
{"sequence": "UUCUCUUCAUGUGAUCUGC", "gene": "DHX38", "seed-corrected z-score": "-0.4448"}
{"sequence": "UAUGCUAUAGCCACUGCCC", "gene": "ACER1", "seed-corrected z-score": "-0.2169"}
{"sequence": "UUGCUUUCUUUGAUAGAGC", "gene": "PDHX", "seed-corrected z-score": "-1.225"}
{"sequence": "UCAGACAUCGGUAAGACCC", "gene": "ERMAP", "seed-corrected z-score": "0.03982"}
{"sequence": "AACAGGGAAAGAAACGAUG", "gene": "TWSG1", "seed-corrected z-score": "-1.091"}
{"sequence": "UACUCAUUCUCCACAAUGC", "gene": "FGFR1", "seed-corrected z-score": "-0.2819"}
{"sequence": "UCUGCAUCCAUCUUAGUGG", "gene": "SCRN1", "seed-corrected z-score": "-1.194"}
{"sequence": "UCAGAUGCAAACAGGACCU", "gene": "EBF4", "seed-corrected z-score": "0.5752"}
{"sequence": "UGUGGUCUUAGCCUUCUUC", "gene": "RPL36AP46", "seed-corrected z-score": "-1.004"}
{"sequence": "GUAUCUUUUAGAGCCAUCA", "gene": "ZNF251", "seed-corrected z-score": "0.2388"}
{"sequence": "UAUGACUCCGGAGUUUUCC", "gene": "TCP10L", "seed-corrected z-score": "-0.04501"}
{"sequence": "UUUUCUUUGAGUUCAUAGU", "gene": "IQCF5", "seed-corrected z-score": "0.2483"}
{"sequence": "UUCUGGAUAGCAUAUAGUG", "gene": "GNAI1", "seed-corrected z-score": "0.2825"}
{"sequence": "UAGAGUGCCGAGUAGAUCC", "gene": "ZBTB20", "seed-corrected z-score": "0.3697"}
{"sequence": "UAGUUAUUAAGACUUUCGC", "gene": "PCDHGA6", "seed-corrected z-score": "-1.196"}
{"sequence": "UGAUGGAAUCUAACUGAGC", "gene": "CRYL1", "seed-corrected z-score": "0.5199"}
{"sequence": "UGAUUGAACGGUGUCAUCC", "gene": "LRRFIP1", "seed-corrected z-score": "-0.2367"}
{"sequence": "UUCAUGCUCUGGUUGCAGC", "gene": "ZNF513", "seed-corrected z-score": "-0.6424"}
{"sequence": "AUCUUGCCCAGAGAGAUGC", "gene": "IER5", "seed-corrected z-score": "-1.947"}
{"sequence": "AUCUCUCCACGGUAAAUGG", "gene": "ITM2A", "seed-corrected z-score": "0.7922"}
{"sequence": "AGUGUAGAGAGGGUGAUUG", "gene": "TECR", "seed-corrected z-score": "-0.1632"}
{"sequence": "UCUUGAACCUGGUUAGUCC", "gene": "WDR91", "seed-corrected z-score": "0.4914"}
{"sequence": "UCCAGUUCCAGAGUGAUAG", "gene": "SMC2", "seed-corrected z-score": "-0.6787"}
{"sequence": "ACCAGGUCCAGUAUGUUCC", "gene": "PKD2L1", "seed-corrected z-score": "-0.5798"}
{"sequence": "UUAGUUAGUGUUGGGUUGG", "gene": "PEX13", "seed-corrected z-score": "-0.3712"}
{"sequence": "AAACGGUUAAUAUUUUCCC", "gene": "LOC728178", "seed-corrected z-score": "0.665"}
{"sequence": "UGCUGUUCUAUGGAUCAGG", "gene": "R3HCC1", "seed-corrected z-score": "-0.3376"}
{"sequence": "UCAGAGUCAAUGAUUUUCU", "gene": "STKLD1", "seed-corrected z-score": "0.4026"}
{"sequence": "AUGGGCAUCAUCGAUCACC", "gene": "SYN3", "seed-corrected z-score": "-0.2004"}

5 of the entries, repeated:

{"sequence": "UAGGAAUUCGCUUUCACCG", "gene": "CD40", "seed-corrected z-score": "-0.3527"}
{"sequence": "GUAUCUUUUAGAGCCAUCA", "gene": "ZNF251", "seed-corrected z-score": "0.2388"}
{"sequence": "AUCCUUGUAGUAGUAGAGC", "gene": "ARHGAP25", "seed-corrected z-score": "-0.6354"}
{"sequence": "AUCUUGCCCAGAGAGAUGC", "gene": "IER5", "seed-corrected z-score": "-1.947"}
{"sequence": "UCUGCAUCCAUCUUAGUGG", "gene": "SCRN1", "seed-corrected z-score": "-1.194"}

The results are deposited in PubChem (AID1159506; NCATS, 2015).